These results are taken from article PMC3510454, “Elba, a novel developmentally regulated chromatin boundary factor is a hetero-tripartite DNA binding complex”.

The subject of this data set is native Elba1 + native Elba2 + native Elba3. Description: DNA affinity pull-down. As to conditions: affinity beads: HBB (10 mM HEPES pH 7.4, 0.1 mM EDTA, 10% glycerol), 0.15 M KCl, 0.05% NP-40, 1 mM DTT, protein in an extract, label: 5' biotin on bottom ….

Construct, isoform or probe ends are uncertain for at least one entry. At least one result comes from cells or an extract, where the contact may be indirect. The comparison behind a weaker result is the experiment's own reference, which may not be listed here.

For “TGCAGCGCCCAATAAGCAAATGCAGCGCCCAATAAGCAAATGCAGCGCCCAATAAGCAAATG / AGCATTTGCTTATTGGGCGCTGCATTTGCTTATTGGGCGCTGCATTTGCTTATTGGGCGCTGCA [3x Elba-site]”, the binding result (eluted at 1.0 M KCl) is reported as “binds”. On to “TGCAGCGCCCCCGAAGCAAATGCAGCGCCCCCGAAGCAAATGCAGCGCCCCCGAAGCAAATG / AGCATTTGCTTCGGGGGCGCTGCATTTGCTTCGGGGGCGCTGCATTTGCTTCGGGGGCGCTGCA [3x Elba-M3-site]”, for which, where the note is “bulk unbound, small amount in 1.0 M KCl eluate”, the binding result is given as “binds more weakly”.
